Measured values from the supplement of paper PMC8256030.
The other results are listed elsewhere or left out. Repeats in this data set agree poorly, so a single value says little.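 HEK293T cells were given each compound shortly before transfection with a reporter in which red mCherry is followed by the SARS-CoV-2 frameshift element and then GFP in the −1 frame, so GFP appears only after frameshifting.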

How the values were obtained:
[1] = tested on: SARS-CoV-2 -1 PRF reporter mCherry-FSE-GFP(-1); experiment: mCherry (red) intensity as percent of control; higher = higher upstream reporter expression; conditions: 10 µM; 24 h; HEK293T
[2] = tested on: SARS-CoV-2 -1 PRF reporter mCherry-FSE-GFP(-1); experiment: percent effect, decrease of GFP/mCherry ratio (-1 PRF reporter) relative to controls; higher = stronger frameshift inhibition; conditions: 10 µM; 24 h; HEK293T

Compound	mCherry [1] [%]	percent effect [2] [%]
CCOC(N)=O [urethane]	102	-6.43
N#Cc1c[nH]c2c(C(=O)N3CCN(CCc4ccc(F)cc4)CC3)cccc12 [pruvanserin]	104	0.262
O=C(O)COc1nn(Cc2ccccc2)c2ccccc12 [bendazac]	96.9	-0.513
OC1C(O)C(O)C(O)C(O)C1O (stereo not drawn)	106	-0.758
CC1(C)C2CCC1(CS(=O)(=O)O)C(=O)C2=Cc1ccc(C=C2C(=O)C3(CS(=O)(=O)O)CCC2C3(C)C)cc1	130	-5.47
O.O.O.O.O.O.O.O.O.O.O.O.O.O.O.O.O.O.O.O.O=S(=O)([O][Al])OC[C@H]1O[C@@](COS(=O)(=O)[O][Al])(O[C@H]2O[C@H](COS(=O)(=O)[O][Al])[C@@H](OS(=O)(=O)[O][Al])[C@H](OS(=O)(=O)[O][Al])[C@H]2OS(=O)(=O)[O][Al])[C@@H](OS(=O)(=O)[O][Al])[C@@H]1OS(=O)(=O)[O][Al].[Al]	116	-6.08
CC(C)(Oc1ccc(Cl)cc1)C(=O)N1CSCC1C(=O)O (stereo not drawn) [timofibrate]	80.7	-8.26
CC1OC2(CS1)CN1CCC2CC1 (stereo not drawn) [Evoxac]	115	-3.37
CN(C)CCOC(C)(c1ccccc1)c1ccc(Cl)cc1 (stereo not drawn) [chlorphenoxamine]	96.3	1.1
CN1CCC(OC(c2ccccc2)c2ccccc2)CC1 [diphenylpyraline]	95.6	-5.18
CC(=O)NC(Cc1ccccc1)C(=O)O (stereo not drawn)	110	-0.65
C[C@H](N[C@@H](CCc1ccccc1)C(=O)O)C(=O)N1Cc2ccccc2C[C@H]1C(=O)O [quinaprilat]	107	-1.38
CCN[C@@H]1C[C@H](N)[C@@H](O[C@H]2OC(CN)=CC[C@H]2N)[C@H](O)[C@H]1O[C@H]1OC[C@](C)(O)[C@H](NC)[C@H]1O [netilmicin]	73.1	-0.738
COCCCN1CCN(c2ccccc2OC)CC1 [dimetholizine]	141	0.553
CCCCC/C=C\C/C=C\C/C=C\CCCCC(=O)O [gamolenic acid]	79.6	-1.79
CCOC(=O)[N-]c1c[n+](N2CCOCC2)no1 [Molsidomine]	105	0.839
Oc1ccc(Cl)c2c1CCC2 [clorindanol]	108	-6.61
CC[C@]1(O)C[C@H]2CN(CCc3c([nH]c4ccccc34)[C@@](C(=O)OC)(c3cc4c(cc3OC)N(C=O)[C@H]3[C@@](O)(C(=O)OC)[C@H](OC(C)=O)[C@]5(CC)C=CCN6CC[C@]43[C@@H]65)C2)C1 [Vincristine]	19.6	-10.4
CN/C(=N\c1ccc(C2=NNC(=O)CC2C)cc1)NC#N (stereo not drawn) [siguazodan]	105	-0.505
C[C@@H]1CN(c2c(F)c(F)c3c(=O)c(C(=O)O)cn(C4CC4)c3c2F)C[C@H](C)N1 [orbifloxacin]	87.7	1.31

Whole records, quoted from the list. Values in the order: mCherry [1] [%]	percent effect [2] [%]
`O=C(O)COc1nn(Cc2ccccc2)c2ccccc12` [bendazac] is listed with 96.9	-0.513
`CC1(C)C2CCC1(CS(=O)(=O)O)C(=O)C2=Cc1ccc(C=C2C(=O)C3(CS(=O)(=O)O)CCC2C3(C)C)cc1` is listed with 130	-5.47

More results.

Compound	mCherry [1] [%]	percent effect [2] [%]
CC(C)[N+]1(C)[C@@H]2CC[C@H]1C[C@@H](OC(=O)C(CO)c1ccccc1)C2 (stereo partly drawn)	95.7	7.29
C#C[C@]1(OC(C)=O)CC[C@H]2[C@@H]3CCC4=CC(=O)CC[C@@H]4[C@H]3CC[C@@]21C	120	-11.2
C[C@H]1COc2c(C3(N)CC3)c(F)cc3c(=O)c(C(=O)O)cn1c23 [Pazufloxacin]	92.3	0.747
Cn1cncc1[C@@](N)(c1ccc(Cl)cc1)c1ccc2c(c1)c(-c1cccc(Cl)c1)cc(=O)n2C [tipifarnib]	58.5	-3.79
O=C1NC(c2ccccc2)(c2ccccc2)C(=O)N1COP(=O)(O)O [fosphenytoin]	101	-4.08
CC(=O)N(CC(O)CO)c1c(I)c(C(=O)NCC(O)CO)c(I)c(C(=O)NCC(O)CO)c1I (stereo not drawn) [iohexol]	111	-1.37
CCOc1ccc2nc3cc(N)ccc3c(N)c2c1	87.1	-8.13
C=C1[C@H](CO)[C@@H](O)C[C@@H]1n1cnc2c(=O)[nH]c(N)nc21 [entecavir]	54.2	-9.95
[O-][n+]1cccc(CO)c1 [mepiroxol]	106	-2.66
O=C(OCC(O)CO)c1ccccc1Nc1ccnc2c(C(F)(F)F)cccc12 (stereo not drawn) [floctafenine]	90.5	-0.889
C[C@@H](c1nc(-c2ccc(C#N)cc2)cs1)[C@](O)(Cn1cncn1)c1cc(F)ccc1F [isavuconazole]	86.2	-4.59
CCN(CC)CCOC(=O)C(c1ccccc1)c1ccccc1	108	-2.75
CCN(CC)CCOC(=O)C1(C2CCCCC2)CCCCC1 [dicycloverine]	106	-9.93
CCN(CC)CCOC(=O)c1ccc(N)cc1 [procaine]	105	-0.458
CS(=O)(=O)c1cc(C2(NC(=O)c3cncc4c3cnn4-c3ccc(F)cc3)CC2)ccn1	49.8	-9.48
C[C@]12C=CC(=O)C=C1CC[C@@H]1[C@@H]2[C@@H](O)C[C@@]2(C)[C@H]1CC[C@]2(O)C(=O)COP(=O)(O)O	136	1.69
CC(=O)Nc1ccc(OC(=O)c2ccccc2OC(C)=O)cc1 [benorilate]	98.9	0.0267
N=C(N=C(N)N)N1CCOCC1	96.1	0.193
CC1NC(=O)COC1c1ccccc1 (stereo not drawn) [fenmetramide]	111	-16.4
